# Measured values published in the supplement of paper PMC6411743.
# ± gives the standard deviation of the averaged measurements. Some of the results follow.
# Key:
# Experiment in all cases: NP40-soluble protein abundance relative to vehicle (solubility fold change) (ratio); higher = more soluble protein in presence of GTP
# [1] = biological target: T1, H0Y2Y8 and related entries (UniProt Q15942)
# T1 sequence (whole entry): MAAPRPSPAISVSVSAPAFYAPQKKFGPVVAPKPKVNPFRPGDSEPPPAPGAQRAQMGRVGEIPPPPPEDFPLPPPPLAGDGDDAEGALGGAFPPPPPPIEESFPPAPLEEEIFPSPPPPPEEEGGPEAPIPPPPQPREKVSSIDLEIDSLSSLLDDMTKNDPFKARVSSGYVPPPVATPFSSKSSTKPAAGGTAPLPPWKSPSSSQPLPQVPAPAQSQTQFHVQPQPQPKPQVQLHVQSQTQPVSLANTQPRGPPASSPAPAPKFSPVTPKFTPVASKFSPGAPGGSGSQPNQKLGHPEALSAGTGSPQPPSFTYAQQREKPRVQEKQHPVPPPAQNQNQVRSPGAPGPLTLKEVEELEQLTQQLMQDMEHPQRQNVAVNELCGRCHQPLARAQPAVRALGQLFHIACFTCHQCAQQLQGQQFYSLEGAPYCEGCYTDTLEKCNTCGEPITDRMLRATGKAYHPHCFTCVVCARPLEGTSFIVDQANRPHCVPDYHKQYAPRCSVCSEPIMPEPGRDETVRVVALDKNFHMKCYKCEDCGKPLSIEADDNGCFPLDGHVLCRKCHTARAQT
# Method in brief: (§1)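 Jurkat crude lysate prepared with a Dounce homogeniser was treated at eight concentrations spanning 0.1 to 10 mM, 10 min at room temperature then 3 min at 37 °C. Solubilisation with 0.8% NP40 and benzonase and ultracentrifugation preceded TMT labelling of the supernatant for LC-MS/MS. Fold change against the detergent-processed vehicle was determined per replicate from vsn-normalised intensities, across three independent experiments.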
# [2] = biological target: T2, H0Y4R2 and related entries (UniProt P16435)
# T2 sequence (whole entry): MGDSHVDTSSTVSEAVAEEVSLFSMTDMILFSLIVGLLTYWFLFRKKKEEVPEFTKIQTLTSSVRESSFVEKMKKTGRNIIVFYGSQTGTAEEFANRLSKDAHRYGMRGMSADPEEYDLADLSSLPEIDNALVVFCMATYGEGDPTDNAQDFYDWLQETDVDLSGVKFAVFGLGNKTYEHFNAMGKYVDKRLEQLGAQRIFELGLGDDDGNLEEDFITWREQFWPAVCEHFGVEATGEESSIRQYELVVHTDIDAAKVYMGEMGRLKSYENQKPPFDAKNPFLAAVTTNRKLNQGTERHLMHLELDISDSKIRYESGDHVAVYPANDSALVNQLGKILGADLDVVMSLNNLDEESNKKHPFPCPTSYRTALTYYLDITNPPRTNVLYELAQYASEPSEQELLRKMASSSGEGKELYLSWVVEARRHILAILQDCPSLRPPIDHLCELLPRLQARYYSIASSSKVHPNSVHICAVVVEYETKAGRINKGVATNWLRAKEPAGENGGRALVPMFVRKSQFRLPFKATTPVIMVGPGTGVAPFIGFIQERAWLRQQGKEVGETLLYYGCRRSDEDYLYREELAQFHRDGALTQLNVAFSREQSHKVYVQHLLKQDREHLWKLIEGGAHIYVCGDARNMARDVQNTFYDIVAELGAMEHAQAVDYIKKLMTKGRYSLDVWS
# Method in brief: as §1
# [3] = biological target: T3, H0Y6I6 and related entries (UniProt Q96ME1)
# T3 sequence (whole entry): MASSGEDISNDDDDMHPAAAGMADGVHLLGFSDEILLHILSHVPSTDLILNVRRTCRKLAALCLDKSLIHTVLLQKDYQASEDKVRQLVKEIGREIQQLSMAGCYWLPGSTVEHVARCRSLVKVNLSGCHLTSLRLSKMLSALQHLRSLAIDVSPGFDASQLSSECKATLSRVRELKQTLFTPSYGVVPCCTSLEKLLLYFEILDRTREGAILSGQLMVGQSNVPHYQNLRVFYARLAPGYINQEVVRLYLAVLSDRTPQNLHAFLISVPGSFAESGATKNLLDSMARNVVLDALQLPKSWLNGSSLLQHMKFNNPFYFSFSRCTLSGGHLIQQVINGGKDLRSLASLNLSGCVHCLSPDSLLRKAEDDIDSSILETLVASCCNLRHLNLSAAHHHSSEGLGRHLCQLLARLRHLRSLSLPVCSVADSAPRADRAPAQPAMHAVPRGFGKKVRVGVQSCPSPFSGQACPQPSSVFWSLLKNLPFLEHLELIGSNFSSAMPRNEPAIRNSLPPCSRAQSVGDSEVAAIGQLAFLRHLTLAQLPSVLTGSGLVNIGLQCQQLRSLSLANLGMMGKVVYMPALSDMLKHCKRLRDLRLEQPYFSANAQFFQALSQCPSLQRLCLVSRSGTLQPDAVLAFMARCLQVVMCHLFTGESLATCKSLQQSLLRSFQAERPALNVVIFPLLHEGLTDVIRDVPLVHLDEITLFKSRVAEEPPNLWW
# Method in brief: as §1
# [4] = biological target: T4, H0YBI6 and related entries (UniProt Q86VQ6)
# T4 sequence (whole entry): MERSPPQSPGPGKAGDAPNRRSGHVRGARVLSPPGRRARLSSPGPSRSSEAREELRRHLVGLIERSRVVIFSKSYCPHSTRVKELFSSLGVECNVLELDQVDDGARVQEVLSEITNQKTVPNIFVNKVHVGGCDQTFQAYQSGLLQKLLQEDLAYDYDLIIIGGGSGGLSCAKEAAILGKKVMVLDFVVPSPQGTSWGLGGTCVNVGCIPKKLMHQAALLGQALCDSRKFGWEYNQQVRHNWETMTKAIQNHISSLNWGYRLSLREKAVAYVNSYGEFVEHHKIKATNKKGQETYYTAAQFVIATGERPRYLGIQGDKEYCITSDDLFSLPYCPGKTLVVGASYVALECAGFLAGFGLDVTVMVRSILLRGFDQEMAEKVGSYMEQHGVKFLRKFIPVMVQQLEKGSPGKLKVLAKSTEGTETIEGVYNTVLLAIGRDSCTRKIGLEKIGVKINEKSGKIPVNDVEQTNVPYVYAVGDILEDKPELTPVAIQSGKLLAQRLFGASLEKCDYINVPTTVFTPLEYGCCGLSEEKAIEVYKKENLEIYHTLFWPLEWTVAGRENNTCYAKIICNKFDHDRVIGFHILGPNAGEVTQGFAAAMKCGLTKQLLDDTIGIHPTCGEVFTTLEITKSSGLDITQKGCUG
# Method in brief: as §1
# [5] = biological target: T5, H0YMI4 and related entries (UniProt Q9Y6I4)
# T5 sequence (whole entry): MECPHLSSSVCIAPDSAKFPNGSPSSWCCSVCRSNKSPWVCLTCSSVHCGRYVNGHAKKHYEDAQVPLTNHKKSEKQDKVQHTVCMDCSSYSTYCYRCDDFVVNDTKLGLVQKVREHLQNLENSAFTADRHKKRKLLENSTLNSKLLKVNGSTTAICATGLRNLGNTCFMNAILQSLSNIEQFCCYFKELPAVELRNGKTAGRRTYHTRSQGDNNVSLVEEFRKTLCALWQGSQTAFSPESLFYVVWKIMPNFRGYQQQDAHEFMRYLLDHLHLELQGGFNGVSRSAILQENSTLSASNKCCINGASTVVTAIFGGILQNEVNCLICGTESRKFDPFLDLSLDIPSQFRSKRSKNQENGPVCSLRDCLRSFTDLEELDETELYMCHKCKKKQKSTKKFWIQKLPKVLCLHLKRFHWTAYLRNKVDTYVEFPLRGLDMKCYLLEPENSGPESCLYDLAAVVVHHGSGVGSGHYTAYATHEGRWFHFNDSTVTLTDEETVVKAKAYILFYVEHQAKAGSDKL
# Method in brief: as §1
# [6] = biological target: T6, H3BRB6 and related entries (UniProt Q8ND25)
# T6 sequence (whole entry): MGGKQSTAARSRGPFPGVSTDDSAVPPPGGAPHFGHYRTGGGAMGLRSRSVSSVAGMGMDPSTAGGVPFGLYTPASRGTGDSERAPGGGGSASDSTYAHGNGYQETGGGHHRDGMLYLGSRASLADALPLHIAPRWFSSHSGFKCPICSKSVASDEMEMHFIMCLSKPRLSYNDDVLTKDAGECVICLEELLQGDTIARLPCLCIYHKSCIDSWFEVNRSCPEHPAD
# Method in brief: as §1
structure (smiles),measurement,setting,value
Nc1nc2c(ncn2[C@@H]2O[C@H](COP(=O)(O)OP(=O)(O)OP(=O)(O)O)[C@@H](O)[C@H]2O)c(=O)[nH]1 [guanosine triphosphate],NP40-soluble protein abundance,[1]; concentration: 0.1mM,0.956 ± 0.032
same,NP40-soluble protein abundance,[1]; concentration: 0.5mM,0.94 ± 0.068
same,NP40-soluble protein abundance,[1]; concentration: 1mM,0.983 ± 0.07
same,NP40-soluble protein abundance,[1]; concentration: 2mM,0.926 ± 0.1
same,NP40-soluble protein abundance,[1]; concentration: 4mM,0.923 ± 0.085
same,NP40-soluble protein abundance,[1]; concentration: 6mM,0.923 ± 0.1
same,NP40-soluble protein abundance,[1]; concentration: 8mM,0.935 ± 0.073
same,NP40-soluble protein abundance,[1]; concentration: 10mM,0.919 ± 0.072
same,NP40-soluble protein abundance,[2]; concentration: 0.1mM,0.9681 ± 0.0095
same,NP40-soluble protein abundance,[2]; concentration: 0.5mM,1.04 ± 0.035
same,NP40-soluble protein abundance,[2]; concentration: 1mM,0.907 ± 0.046
same,NP40-soluble protein abundance,[2]; concentration: 2mM,0.938 ± 0.014
same,NP40-soluble protein abundance,[2]; concentration: 4mM,0.912 ± 0.045
same,NP40-soluble protein abundance,[2]; concentration: 6mM,0.915 ± 0.021
same,NP40-soluble protein abundance,[2]; concentration: 8mM,0.89 ± 0.045
same,NP40-soluble protein abundance,[2]; concentration: 10mM,0.927 ± 0.046
same,NP40-soluble protein abundance,[3]; concentration: 0.1mM,1.07 ± 0.076
same,NP40-soluble protein abundance,[3]; concentration: 0.5mM,1.03 ± 0.044
same,NP40-soluble protein abundance,[3]; concentration: 1mM,0.919 ± 0.056
same,NP40-soluble protein abundance,[3]; concentration: 2mM,0.992 ± 0.057
same,NP40-soluble protein abundance,[3]; concentration: 4mM,0.951 ± 0.11
same,NP40-soluble protein abundance,[3]; concentration: 6mM,0.923 ± 0.086
same,NP40-soluble protein abundance,[3]; concentration: 8mM,0.928 ± 0.072
same,NP40-soluble protein abundance,[3]; concentration: 10mM,0.968 ± 0.059
same,NP40-soluble protein abundance,[4]; concentration: 0.1mM,1.11 ± 0.077
same,NP40-soluble protein abundance,[4]; concentration: 0.5mM,1.18 ± 0.19
same,NP40-soluble protein abundance,[4]; concentration: 1mM,1.1 ± 0.077
same,NP40-soluble protein abundance,[4]; concentration: 2mM,1.21 ± 0.2
same,NP40-soluble protein abundance,[4]; concentration: 4mM,1.26 ± 0.19
same,NP40-soluble protein abundance,[4]; concentration: 6mM,1.11 ± 0.26
same,NP40-soluble protein abundance,[4]; concentration: 8mM,1.11 ± 0.26
same,NP40-soluble protein abundance,[4]; concentration: 10mM,1.06 ± 0.17
same,NP40-soluble protein abundance,[5]; concentration: 0.1mM,1.1 ± 0.03
same,NP40-soluble protein abundance,[5]; concentration: 0.5mM,1.09 ± 0.061
same,NP40-soluble protein abundance,[5]; concentration: 1mM,1.07 ± 0.12
same,NP40-soluble protein abundance,[5]; concentration: 2mM,1.06 ± 0.071
same,NP40-soluble protein abundance,[5]; concentration: 4mM,1.07 ± 0.13
same,NP40-soluble protein abundance,[5]; concentration: 6mM,1.02 ± 0.081
same,NP40-soluble protein abundance,[5]; concentration: 8mM,1.02 ± 0.06
same,NP40-soluble protein abundance,[5]; concentration: 10mM,0.965 ± 0.069
same,NP40-soluble protein abundance,[6]; concentration: 0.1mM,0.978 ± 0.042
same,NP40-soluble protein abundance,[6]; concentration: 0.5mM,0.894 ± 0.011
same,NP40-soluble protein abundance,[6]; concentration: 1mM,0.965 ± 0.037
same,NP40-soluble protein abundance,[6]; concentration: 2mM,0.945 ± 0.045
same,NP40-soluble protein abundance,[6]; concentration: 4mM,0.917 ± 0.024
same,NP40-soluble protein abundance,[6]; concentration: 6mM,0.916 ± 0.038
same,NP40-soluble protein abundance,[6]; concentration: 8mM,0.901 ± 0.056
same,NP40-soluble protein abundance,[6]; concentration: 10mM,0.894 ± 0.038

# 9 entries from above, reformatted:
structure (smiles) | measurement | setting | value
Nc1nc2c(ncn2[C@@H]2O[C@H](COP(=O)(O)OP(=O)(O)OP(=O)(O)O)[C@@H](O)[C@H]2O)c(=O)[nH]1 [guanosine triphosphate] | NP40-soluble protein abundance | [1]; concentration: 8mM | 0.935 ± 0.073
same | NP40-soluble protein abundance | [1]; concentration: 10mM | 0.919 ± 0.072
same | NP40-soluble protein abundance | [2]; concentration: 0.1mM | 0.9681 ± 0.0095
same | NP40-soluble protein abundance | [2]; concentration: 0.5mM | 1.04 ± 0.035
same | NP40-soluble protein abundance | [2]; concentration: 1mM | 0.907 ± 0.046
same | NP40-soluble protein abundance | [2]; concentration: 2mM | 0.938 ± 0.014
same | NP40-soluble protein abundance | [2]; concentration: 4mM | 0.912 ± 0.045
same | NP40-soluble protein abundance | [2]; concentration: 6mM | 0.915 ± 0.021
same | NP40-soluble protein abundance | [2]; concentration: 8mM | 0.89 ± 0.045
